About 7,500 (2.1%) of roughly 360,000 compounds were called active. The inconclusive results got no clear call from the source; some entries with a clear call stand among them for comparison. Calls follow the shape of the dose curve; as a rule, active = well fitted inhibition curve with a large enough effect; inconclusive = small, poorly fitted or top-dose-only effect, or effect the other way; inactive = flat fitted curve, though single readings scatter. Potencies of inconclusive entries are doubtful fits and often do not repeat.
Assay: Nrf2 qHTS screen for inhibitors; also: nearly all actives have a fitted effect of over 60% in size
Details: A549 ARE-Fluc reporter, luciferase luminescence, 18-24 h; series mostly up to 46 µM
Procedure, shortened: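 Concentration-response testing used A549 ARE_Fluc cells at 5000 cells/well. Following an 18-24 h compound incubation, viability was read by fluorescence (Ex 405/Em 525) and luciferase output by luminescence.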
Potency is read from the fitted curve at half-maximal effect.

SMILES | Potency
O=C(OCc1ccc(Cl)c(Cl)c1)c1ccc[nH]1 | inconclusive: 23.1 µM [activator, partial curve]
Cc1ccc(CNC(=O)c2c(C)oc3ncnc(N4CCOCC4)c23)cc1 | inconclusive: 29.1 µM [falling, single point]
Nc1cc[n+](CC(=O)Nc2ccccc2)cc1 | inconclusive: 11.6 µM [falling, partial curve, poor fit]
CCCCCCNc1c(C(=O)OCC)c(=O)[nH]c2ccccc12 | inconclusive: 16.4 µM [falling, single point]
COc1ccc(/C=C\c2onc(C)c2S(=O)(=O)N2CCC(C(=O)Nc3cccc(OC)c3)CC2)cc1 | inconclusive: 20.6 µM [falling, single point]
NC(=S)Nc1cccc(-c2n[nH]c(=S)o2)c1 | inconclusive: 8.2 µM [activator, partial curve]
CCCCOc1ncnc2c1[nH]c1ccc(C)cc12 | inconclusive: 14.6 µM [falling, single point]
Cc1ccc(NS(=O)(=O)c2ccc(C(=O)N3CC(C)OC(C)C3)cc2)cc1 (configuration not stated) | inconclusive: 20.6 µM [falling, partial curve]
CCOC(=O)c1c(C)[nH]c(C)c1S(=O)(=O)N(C)CC(=O)Nc1ccc(CC)cc1 | inconclusive: 16.4 µM [activator, partial curve]
CCOC(=O)CNC(=S)N(Cc1ccc(C)cc1)Cc1ccc(C)o1 | inactive
COc1ccc(C2Nc3ccccc3C(=O)N2Cc2ccccc2)cc1COc1ccc(C#N)cc1 (configuration not stated) | inactive
CC(=O)Nc1cccc(Oc2ccc(-c3noc(C)n3)cc2)c1 | inconclusive: 2.91 µM [activator, partial curve, poor fit]
COc1ccc(-n2c(C)cc(C3=NNC(=NC4CC4)SC3)c2C)cc1 | inconclusive: 1.03 µM [falling, full curve, poor fit]
Cc1cccc(N2CCN(C(=O)C3CCN(c4ncnc5c4nc4n5CCCCC4)CC3)CC2C)c1 (configuration not stated) | active: 18.4 µM
O=C1CCCC2=C1C(c1cccs1)n1nc(SCc3ccccc3F)nc1N2 (configuration not stated) | active: 18.4 µM
Cn1c(=O)c2c(nc(Oc3ccccc3Cl)n2Cc2ccc(C#N)cc2)n(C)c1=O | inactive
CCc1nn(C(C)C(=O)N2CCN(c3ccccc3)CC2)c(=O)c2cc3occc3n12 (configuration not stated) | inactive
CC1CCc2c(sc(NC(=O)c3c([N+](=O)[O-])cnn3C)c2C(N)=O)C1 (configuration not stated) | inconclusive: 16.4 µM [falling, partial curve, poor fit]
Nc1ccc(-c2cc3ccccc3c(=O)o2)cc1 | inconclusive: 2.31 µM [falling, full curve]
Cc1cc(=O)[nH]c(SCC(=O)Nc2ccc(F)cc2)c1C#N | inconclusive: 23.1 µM [falling, single point]
NC(=O)[C@H]1CC2(CC(c3cccc(NC(=O)COc4ccc(Cl)cc4)c3)=NO2)CN1C(=O)CC(c1ccccc1)c1ccccc1 (some centres not stated) | inconclusive: 18.4 µM [falling, single point]

SMILES | Potency
CCN(CC)C(=S)SCC(=O)c1ccc(F)cc1 | inconclusive: 16.4 µM [activator, partial curve]
O=C(CSc1ccc(F)cc1)NC12CC3CC(CC(C3)C1)C2 | inconclusive: 25.9 µM [activator, partial curve, poor fit]
CC(/C=C/c1ccccc1F)=N\NC(=O)c1ccccc1 | inconclusive: 1.46 µM [activator, full curve]
CCOC(=O)N1CCN(C(=O)c2ccc(Cn3c(=S)[nH]c4ccc(Br)cc4c3=O)cc2)CC1 | active: 4.11 µM
C=CCNc1nnc(Cl)c2ccccc12 | inconclusive: 20.6 µM [falling, single point]
CCOc1ccc(C(=O)CCC(=O)NC(C)C(=O)OC)cc1 (configuration not stated) | inconclusive: 20.6 µM [falling, partial curve, poor fit]
O=C(Oc1c(Br)cc([N+](=O)[O-])cc1Br)c1cccnc1 | inconclusive: 29.1 µM [falling, single point]
Cc1c(C(=O)NCCc2ccccc2)oc2ccccc12 | inconclusive: 29.1 µM [activator, partial curve]
O=C(C1CCCN(S(=O)(=O)c2cc(Cl)ccc2Cl)C1)N1CCCCCC1 (configuration not stated) | inconclusive: 25.9 µM [falling, single point]
O=c1c(-c2nnc(SCc3ccc(Cl)cc3)o2)cccn1Cc1ccccc1 | active: 20.6 µM
CCc1cc(-c2[nH]ncc2-c2ccc([N+](=O)[O-])cc2)c(O)cc1OC | inconclusive: 16.4 µM [activator, partial curve, poor fit]
CCn1c(C)nc([N+](=O)[O-])c1Sc1ccc(F)cc1 | inconclusive: 29.1 µM [falling, single point]
Cc1sc(NC(=O)c2ccc3ncsc3c2)c(C(N)=O)c1C | inconclusive: 0.58 µM [activator, full curve, poor fit]
CS(=O)(=O)N(CC(=O)N1CCN(c2ccccc2F)CC1)c1cc(C(F)(F)F)ccc1Cl | inconclusive: 25.9 µM [falling, single point]
Cc1ccc(C)c(N2CCN(C(=O)C3CCCN(c4ncnc5c4nc4n5CCCCC4)C3)CC2)c1 (configuration not stated) | active: 14.6 µM
COc1ccccc1CSc1nc2ccccc2[nH]1 | inconclusive: 29.1 µM [activator, single point]
COc1cc(C2C(N3C(=O)c4ccccc4C3=O)C(=O)N2c2ccc(C)c(C)c2)cc(OC)c1OC (configuration not stated) | inconclusive: 18.4 µM [activator, partial curve, poor fit]
O=C(CSc1ncccn1)Nc1ccc(Cl)c(S(=O)(=O)N2CCOCC2)c1 | inactive
CCCn1cnc2c(oc3ccccc32)c1=O | inconclusive: 7.31 µM [activator, partial curve]
COc1ccccc1N1CCN(C(=O)c2ccccc2N(C)S(=O)(=O)c2ccc(C)cc2)CC1 | inconclusive: 13 µM [falling, single point]
N#CC1(NC(=O)CN2C(=O)c3ccccc3C2=O)CCCCC1 | inactive

Reformatted with each value named: part of the list above
COc1cc(C2C(N3C(=O)c4ccccc4C3=O)C(=O)N2c2ccc(C)c(C)c2)cc(OC)c1OC (configuration not stated)
  Potency: inconclusive: 18.4 µM [activator, partial curve, poor fit]
O=C(CSc1ncccn1)Nc1ccc(Cl)c(S(=O)(=O)N2CCOCC2)c1
  Potency: inactive

— PubChem BioAssay AID504444 (National Center for Advancing Translational Sciences (NCATS), 2011)
